Assay results from PMC10435237.
These are yes or no findings as the source states them, for the method shown. In cells and extracts the contact can be indirect. Here binding means that the protein was enriched with, or labelled near, the bait; the list need not be complete.

Protein sequences, listed by entry. Tags and fused reporters are not part of them.
UniProt Q86U44: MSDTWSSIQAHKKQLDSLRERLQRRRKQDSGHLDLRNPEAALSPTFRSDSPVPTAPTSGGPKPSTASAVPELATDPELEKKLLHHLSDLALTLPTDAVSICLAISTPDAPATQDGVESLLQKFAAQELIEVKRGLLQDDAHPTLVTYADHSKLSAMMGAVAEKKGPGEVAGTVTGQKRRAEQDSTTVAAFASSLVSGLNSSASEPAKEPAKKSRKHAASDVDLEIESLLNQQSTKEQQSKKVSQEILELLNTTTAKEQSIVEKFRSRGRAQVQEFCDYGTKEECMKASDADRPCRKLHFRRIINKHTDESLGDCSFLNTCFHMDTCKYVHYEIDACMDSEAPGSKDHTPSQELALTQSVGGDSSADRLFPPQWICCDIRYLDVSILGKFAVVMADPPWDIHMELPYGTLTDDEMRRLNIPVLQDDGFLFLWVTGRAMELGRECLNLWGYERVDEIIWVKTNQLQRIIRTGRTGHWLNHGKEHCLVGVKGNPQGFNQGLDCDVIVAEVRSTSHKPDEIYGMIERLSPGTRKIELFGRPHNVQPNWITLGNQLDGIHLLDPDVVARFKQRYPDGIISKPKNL
UniProt P17980: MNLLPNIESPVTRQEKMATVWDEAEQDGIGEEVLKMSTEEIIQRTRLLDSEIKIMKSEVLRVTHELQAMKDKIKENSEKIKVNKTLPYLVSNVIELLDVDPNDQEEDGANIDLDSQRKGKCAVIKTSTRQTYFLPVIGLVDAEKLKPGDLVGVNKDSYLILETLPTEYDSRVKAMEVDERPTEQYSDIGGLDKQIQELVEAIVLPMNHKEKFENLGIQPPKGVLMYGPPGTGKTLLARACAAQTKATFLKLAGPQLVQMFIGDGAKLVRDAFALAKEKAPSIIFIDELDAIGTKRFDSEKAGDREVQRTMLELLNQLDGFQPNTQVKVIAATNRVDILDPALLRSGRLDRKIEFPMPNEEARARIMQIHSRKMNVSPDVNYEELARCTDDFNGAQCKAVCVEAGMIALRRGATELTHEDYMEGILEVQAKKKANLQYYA
UniProt P62195: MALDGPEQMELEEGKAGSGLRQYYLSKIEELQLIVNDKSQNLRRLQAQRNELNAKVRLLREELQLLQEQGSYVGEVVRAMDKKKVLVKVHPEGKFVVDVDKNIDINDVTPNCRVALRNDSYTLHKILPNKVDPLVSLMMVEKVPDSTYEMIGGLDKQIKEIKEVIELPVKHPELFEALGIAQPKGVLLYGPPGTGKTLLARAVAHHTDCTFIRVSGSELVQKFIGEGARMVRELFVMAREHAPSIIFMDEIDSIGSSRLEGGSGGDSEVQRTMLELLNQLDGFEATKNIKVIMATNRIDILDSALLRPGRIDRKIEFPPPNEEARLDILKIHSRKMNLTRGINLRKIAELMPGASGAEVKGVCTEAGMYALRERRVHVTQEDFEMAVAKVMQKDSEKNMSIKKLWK
UniProt O75832: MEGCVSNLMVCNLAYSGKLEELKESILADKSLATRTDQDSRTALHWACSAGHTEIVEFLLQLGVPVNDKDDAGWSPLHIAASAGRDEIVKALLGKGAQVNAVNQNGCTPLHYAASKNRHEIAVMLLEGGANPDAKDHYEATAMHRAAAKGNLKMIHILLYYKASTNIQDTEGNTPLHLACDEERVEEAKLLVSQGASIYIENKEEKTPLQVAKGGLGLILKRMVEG

molecular target: METTL3, endogenous (human (endogenous in 293T)) (UniProt Q86U44); experiment: affinity purification with mass spectrometry; IP with METTL3 antibody from 293T cells, LC–MS/MS of the eluate (Figure 7f)

| binding | Substance |
| --- | --- |
| binds | PSMC3 (from UniProt P17980 1-439) |
| binds | PSMC5 (from UniProt P62195 1-406) |
| binds | PSMD10 (from UniProt O75832 1-226) |
